Results: the supplement of paper PMC3334620
The full ranking holds about 33,000 sequences; the median of “E-score (-0.5 to 0.5)” is about -0.0014, and the highest 2% start at about 0.25. This is one part of the list.

What follows are sequences tested against T1, Cad1 (UniProt P24813) (assay: PBM E-score (8-mer binding enrichment) (E-score (-0.5 to 0.5)); higher = stronger / more preferred TF binding). Settings: protein concentration: 100 nM; construct: GST-full length.
T1 sequence: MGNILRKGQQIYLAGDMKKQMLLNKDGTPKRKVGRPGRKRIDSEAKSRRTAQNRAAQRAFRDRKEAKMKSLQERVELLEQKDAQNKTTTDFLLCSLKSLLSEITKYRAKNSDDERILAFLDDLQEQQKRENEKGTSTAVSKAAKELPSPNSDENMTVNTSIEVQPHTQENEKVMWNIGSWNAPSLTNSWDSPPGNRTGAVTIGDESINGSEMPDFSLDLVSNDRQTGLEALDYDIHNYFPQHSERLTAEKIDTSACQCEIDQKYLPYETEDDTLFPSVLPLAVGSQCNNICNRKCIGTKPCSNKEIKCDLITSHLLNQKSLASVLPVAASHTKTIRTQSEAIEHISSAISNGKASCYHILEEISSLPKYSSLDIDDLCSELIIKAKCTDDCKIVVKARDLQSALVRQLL
Procedure, shortened: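 Universal all-10-mer Agilent arrays, double-stranded by primer extension on fresh or once-stripped slides, were probed with about 100-200 nM GST-tagged yeast transcription factors made by PURExpress. Fluorescent anti-GST detected bound protein, and masliner normalised the scans. E-scores from the Universal PBM Analysis Suite were given to each ungapped eight-base word pooled with its reverse complement.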

| Sequence | PBM E-score |
| --- | --- |
| AGTGCATG | -0.00125 |
| ACAAAGCT | 0.124 |
| AAAGTACG | -0.038 |
| GTCATACA | 0.148 |
| GTTTGATA | 0.141 |
| CGCAATTA | 0.092 |
| AATAGTAG | 0.185 |
| ACACATTA | 0.123 |
| ACGCATAA | 0.144 |
| GGCCCTCA | -0.326 |
| AGCCCTGG | -0.211 |
| GCCACTAC | -0.117 |
| GCAACGGC | 0.0742 |
| CTTTCGAC | -0.128 |
| ATACGGGG | -0.164 |
| GGCACGTA | -0.035 |
| AGTCGGAG | -0.129 |
| AGCTGGCA | 0.0357 |
| AGGGGGTA | -0.405 |
| CCTTGCGA | 0.0326 |
| ATCAGAAC | 0.0354 |
| AAACTGGC | -0.13 |
| AATCTGTG | 0.13 |
| AACTAGCG | 0.0415 |
| CCAAGCAG | -0.0965 |

| Sequence | PBM E-score |
| --- | --- |
| AGGCGTGG | -0.319 |
| AACCAGTC | -0.111 |
| CTCATGAC | -0.0193 |
| AGACGGCG | 0.0855 |
| CTCGCGAC | 0.15 |
| CCAAGACA | 0.177 |
| TACGGGCA | -0.111 |
| ACGCACAT | 0.0418 |
| ATAGATAG | -0.108 |
| AGTCTTTA | -0.142 |
| AGTATCAT | 0.133 |
| ATTCCTCA | 0.0519 |
| ACACGTCA | 0.00866 |
| CCGAAACA | 0.0714 |
| CTTGACTA | 0.175 |
| AGCTGGAA | -0.0891 |
| CCATTGAA | 0.159 |
| CTATCAGC | 0.107 |
| GTCGGCTA | 0.048 |
| GGATCGTA | -0.0815 |
| CTAACCCC | -0.267 |
| GAGGGATA | -0.196 |
| ACACTCCA | 0.02 |
| ATTACGTG | 0.163 |
| CGCTTACG | 0.242 |

| Sequence | PBM E-score |
| --- | --- |
| GGATCTAA | -0.182 |
| CCGTGGAG | -0.127 |
| CCTGCCCA | -0.0659 |
| CAGTCCGA | 0.047 |
| CCCTCATC | -0.187 |
| CTGTAAAG | -0.113 |
| CATGCGAA | 0.0648 |
| ACGCCAAT | 0.11 |
| CCTCGCAG | -0.146 |
| AATAGACG | 0.0192 |
| ATTGTGAG | -0.0176 |
| CTACTGCA | -0.159 |
| ATCACTGA | -0.0215 |
| ATCGTCAG | 0.0634 |
| GAAATATA | 0.169 |
| CAAGAGAG | -0.186 |
| CAGTCAGG | 0.0571 |
| CGCCTGTC | -0.0831 |
| AACCACAG | -0.0849 |
| GTCGAGGA | -0.167 |
| ACCATGCC | 0.0435 |
| TAGATACA | -0.0438 |
| AAGGCGTC | -0.0396 |
| ACGAAATA | 0.201 |
| GCCGTACC | -0.0698 |

| Sequence | PBM E-score |
| --- | --- |
| CAGGCCGG | -0.205 |
| CATGGGAC | -0.0807 |
| CGACTTTC | -0.101 |
| GCACAGTA | 0.0893 |
| AACGGTCA | -0.0368 |
| GCAGGGCC | -0.122 |
| TAAAGCTA | -0.186 |
| CGCCGCTA | -0.0235 |
| AGTGCCCA | 0.0563 |
| AGTCCTTG | -0.0247 |
| GATGGCAA | 0.093 |
| GGACGGAC | -0.0841 |
| AATACCGG | 0.103 |
| CCGAGACG | 0.0676 |
| CGCAAGAA | 0.244 |
| AACTGCCG | 0.152 |
| ATCGTATC | 0.0772 |
| GCAAGAAA | -0.0319 |
| AGCATACG | -0.0266 |
| ATCCCACG | -0.121 |
| CTTAGGTC | -0.172 |
| AGCGCATA | 0.0834 |
| AACTGCCA | -0.134 |
| CGCTCAGA | -0.0504 |
| CCTTCGGA | -0.00486 |

As entered above.
Entry for CGCAAGAA under PBM E-score: 0.244
Entry for TAAAGCTA under PBM E-score: -0.186
Entry for CGACTTTC under PBM E-score: -0.101
Entry for CCTTCGGA under PBM E-score: -0.00486

Further results:

| Sequence | PBM E-score |
| --- | --- |
| ACGTCATA | 0.15 |
| CCTATAGC | -0.0832 |
| ACCATCAA | 0.0458 |
| CCGTCAGC | 0.0939 |
| CTAATATC | 0.247 |
| GCCAGATA | 0.0165 |
| CTCACTAA | -0.00114 |
| GGTGATAA | -0.0826 |
| AGGTAAAT | -0.00978 |
| CGGGGCTC | -0.302 |
| CTAAACAA | -0.178 |
| ATCCCCCG | -0.313 |
| ACCAACCT | 0.0932 |
| CGAGGGGA | -0.237 |
| CGTTAATC | 0.104 |
| GCTATTAC | 0.098 |
| ACAGTCTA | -0.0844 |
| CCACTTGA | -0.0496 |
| TAGCACTA | 0.0501 |
| GGGAATAC | 0.0313 |
| GGATGCCA | -0.14 |
| GGTCAGTA | -0.112 |
| CCGAGACC | -0.05 |
| GTACTATA | 0.183 |
| TTAATCAA | 0.199 |

Rewritten with each value named: part of the list above.
ACCATCAA
  PBM E-score: 0.0458
GCCAGATA
  PBM E-score: 0.0165
CGGGGCTC
  PBM E-score: -0.302
ACAGTCTA
  PBM E-score: -0.0844

(continued)

| Sequence | PBM E-score |
| --- | --- |
| AACTTACG | -0.0399 |
| CAGGAAAC | 0.195 |
| CAAAAGCA | 0.0445 |
| GTGAAAAC | 0.132 |
| AGCGAAGC | -0.136 |
| AAGTTGAC | 0.0314 |
| CATCACCC | 0.05 |
| ACAGCGCT | 0.155 |
| GGAGCAAC | -0.0625 |
| GGGAAACC | 0.167 |
| AAATCCGG | 0.148 |
| GAACCGAA | 0.162 |
| ACGGGGAA | -0.0935 |
| AAACCAGA | -0.0763 |
| ACAGATGA | -0.00923 |
| AACACCCT | -0.0954 |
| GCGTGGCC | -0.0913 |
| ATTGGTAA | 0.257 |
| AGCGATGC | -0.25 |
| CTCGAGCA | 0.115 |
| CGGCCTTA | 0.0808 |
| ACAAGTGC | -0.0973 |
| AGAATCAT | -0.0772 |
| CTTCATCC | -0.0685 |
| ACACATAC | 0.0668 |

| Sequence | PBM E-score |
| --- | --- |
| AAAGTGGT | 0.00758 |
| ATCAAGCC | -0.0325 |
| TCATAAAA | 0.0335 |
| CCGCGGGC | 0.0272 |
| CTAAATGA | -0.0381 |
| AAGCCCTC | -0.125 |
| ACTTGAAG | -0.0331 |
| ATTCATCG | 0.0965 |
| CGTGCCGC | 0.0565 |
| ACACTGAG | -0.0275 |
| ATCTCTGA | -0.103 |
| CCTAACCG | -0.199 |
| CAAAACGG | 0.0792 |
| GCTCTTCC | -0.288 |
| AAACCGAC | 0.0769 |
| AATCCGAT | 0.25 |
| CAGAAACA | 0.0904 |
| GCAAACTA | 0.0959 |
| ACACCTAA | 0.0123 |
| AGCGGTTC | -0.0532 |
| ACGGAATG | -0.0518 |
| GGACTGAA | 0.0584 |
